Data source: PubChem BioAssay AID1259405 (NCATS, 2018)

Test: 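Silenced genes that increase secreted GFP made by CHO cells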 (primary screen)
Cell system: Chinese hamster CHO-K1 ovary cells with stable secreted eGFP expression
Reagent: single siRNA against mouse genes, 0.8 pmol siRNA per well (2 µl of 400 nM stock)
Timing: 3 days
Measured: 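Percent of the per-plate non-targeting control median for intracellular GFP per well by laser scanning cytometry and for cell viability by ATP luminescence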
Scale: GFP, % of control: higher = more GFP per well, higher productivity; viability (ATP), % of control: higher = more viable cells (more ATP)
Hit rule: 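a knock-down is called active if GFP reaches 120% or more of non-targeting control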
The whole screen tested about 50,000 reagents; below is a random part of them. Of all reagents, about 4,000 (8%) were called active. 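Mouse siRNA library applied to hamster cells; one well for each siRNA.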 Reagents against one gene are numbered here.

gene knocked down,siRNA no.,"GFP, % of control","viability (ATP), % of control",call
Gm9918,1,141,89.4,active
Gm9918,2,95.9,47.6,inactive
Gm9918,3,74,62.1,inactive
Mns1,1,51.3,38,inactive
Mns1,2,78.3,55.8,inactive
Mns1,3,60.8,52.6,inactive
Vmn1r230,1,62.7,46.1,inactive
Vmn1r230,2,83.1,71,inactive
Vmn1r230,3,51.3,89.5,inactive
Cyp3a16,1,144,127,active
Cyp3a16,2,72.3,75.2,inactive
Cyp3a16,3,38,45.9,inactive
Setx,1,58.6,53.4,inactive
Setx,2,138,84.9,active
Setx,3,100,58.5,inactive
Mmp1a,1,85.1,125,inactive
Mmp1a,2,63,67.2,inactive
Dusp14,1,79.2,92.4,inactive
Dusp14,2,82.2,78,inactive
Akr1c13,1,35.5,42.5,inactive
Akr1c13,2,70.4,63.6,inactive
Akr1c13,3,80,94.2,inactive
Ly6k,1,94.9,88.8,inactive
Ly6k,2,102,109,inactive
Ly6k,3,71.9,91.8,inactive
N4bp2l2,1,37.2,46.4,inactive
N4bp2l2,2,56.7,78.5,inactive
N4bp2l2,3,85.5,79.1,inactive
Psmc3,1,99.3,107,inactive
Psmc3,2,53.6,45.2,inactive
Psmc3,3,59.3,90.5,inactive
Mblac2,1,69.8,64,inactive
Mblac2,2,76.9,76.2,inactive
Mblac2,3,48.5,59.8,inactive
Plxnd1,1,62.7,73.1,inactive
Nsun5,1,84.8,59.4,inactive
Nsun5,2,102,57.5,inactive
Nsun5,3,56.8,71.6,inactive
Vmn1r40,1,59.4,78.6,inactive
Vmn1r40,2,30.5,34.8,inactive
Vmn1r40,3,59.7,73.8,inactive
Rnf149,1,87.2,77.7,inactive
Rnf149,2,52.5,47.2,inactive
Rnf149,3,46.5,58,inactive
Or4q3,1,68.1,71.9,inactive
Or4q3,2,71.5,60,inactive
Or4q3,3,84,107,inactive
Gng4,1,119,94.7,inactive
Gng4,2,88.7,56.1,inactive
Gng4,3,121,69.7,active
Trappc2l,1,60.9,73.7,inactive
Trappc2l,2,71.8,85.7,inactive
Trappc2l,3,67.5,79.4,inactive
Tmco5b,1,85.4,98.6,inactive
Tmco5b,2,81.8,69.8,inactive
Tmco5b,3,119,77.8,inactive
Trpv6,1,257,84.2,active
Trpv6,2,83.8,74.1,inactive
Trpv6,3,97.8,99,inactive
Trpv6,4,82.3,87.1,inactive
Trpv6,5,144,102,active
Trpv6,6,68.7,73,inactive
Gar1,1,60.9,65.6,inactive
Gar1,2,97.2,61.3,inactive
Gar1,3,116,55.1,inactive
Drd3,1,38,39.9,inactive
Drd3,2,74.4,69.1,inactive
Drd3,3,71.5,72.4,inactive
Nr4a2,1,71.2,71.9,inactive
Nr4a2,2,35.6,72.9,inactive
Nr4a2,3,51.8,69.1,inactive
Dctn4,1,69.4,78.5,inactive
Dctn4,2,66,73.1,inactive
Dctn4,3,59.3,63.2,inactive
Itgb3bp,1,53.2,59.9,inactive
Itgb3bp,2,84.5,74.7,inactive
Itgb3bp,3,67.5,72.9,inactive
Pcdhga7,1,59.7,74.8,inactive
Pcdhga7,2,35.5,58,inactive
Pcdhga7,3,30.1,51.2,inactive
Thap3,1,75.9,40.3,inactive
Thap3,2,116,102,inactive
Thap3,3,92.2,101,inactive
Pou2af1,1,34.1,36.6,inactive
Pou2af1,2,70.5,50.7,inactive
Pou2af1,3,95.4,113,inactive
